Experimental data published in PubChem BioAssay AID540256 (National Center for Advancing Translational Sciences (NCATS), 2011).
Out of some 300,000 compounds screened, about 3,700 (1.2%) were called active. Inconclusive results, whose numbers are uncertain, are shown with a selection of clear calls. Calls follow the shape of the full dose curve; tested in HEK293 cells. Where the call is inconclusive, the potency comes from a doubtful curve fit.

Test: qHTS for Inhibitors of binding or entry into cells for Lassa Virus; also: nearly all actives have a fitted effect of over 50% in size
Details: Lassa virus pseudotype entry inhibition, cell reporter; series mostly up to 37.9 µM
Potency is read from the fitted curve at half-maximal effect.

SMILES | Potency
O=C(Nc1ccc(Cl)c(S(=O)(=O)N2CCOCC2)c1)c1ccccc1-c1ccc(C(F)(F)F)cc1 | inconclusive: 14.6 µM [inhibitor, single point]
COc1ccc(C(=O)NC(=S)NNC(=O)c2cnccn2)cc1 | inactive
CCc1ccc(NC(=O)CSc2nc3c([nH]c4ccccc43)c(=O)n2C)cc1 | inactive
CC(NC(=O)c1cc(-c2cccs2)on1)c1ccccc1 (stereo unspecified) | inactive
CC(C)(C)C(=O)Nc1ccccc1C(=O)Nc1cc(Cl)ccc1Cl | inconclusive: 7.3 µM [inhibitor, partial curve, poor fit]
Cc1ccnc(NCc2ccc(Cl)cc2)c1 | inconclusive: 1 µM [inhibitor, full curve, poor fit]
COc1ccc(N2CCN(C(=O)NC3CC(=O)N(c4ccc(OC)cc4)C3)CC2)cc1 (stereo unspecified) | inconclusive: 0.562 µM [inhibitor, full curve, poor fit]
COc1ccccc1CN1CCCC(N2CCN(c3ccc(F)cc3)CC2)C1 (stereo unspecified) | inconclusive: 35.5 µM [inhibitor, single point]
O=C(COc1cccc2cccnc12)N/N=C/c1cccn1-c1ccc(F)cc1 | inconclusive: 11.2 µM [inhibitor, partial curve, poor fit]
O=C(c1ccccc1F)N1CCc2ccccc21 | inactive
CC#CC[N+](C)(C)CCCCCCCC | inactive
CCOc1ccccc1NC(=O)Cn1c(=O)n(-c2ccc(Cl)cc2)c(=O)c2oc3ccccc3c21 | inactive
Nc1ccc2c(O)cc(S(=O)(=O)O)cc2c1 | inconclusive: 31.6 µM [inhibitor, single point]
COc1ccc(/C=N/NC(=O)CCn2nc(C)cc2C)cc1 | inconclusive: 10 µM [inhibitor, partial curve, poor fit]
COc1ccc(NC(=O)CCn2cnnn2)cc1 | inactive
O=C(NC1=NCCS1)c1cc2ccccc2o1 | inconclusive: 13 µM [inhibitor, partial curve, poor fit]
CCCSc1ncc(Cl)c(C(=O)Nc2ccc(S(=O)(=O)N3CCCCC3C)cc2)n1 (stereo unspecified) | inconclusive: 3.55 µM [inhibitor, partial curve, poor fit]
CCCC(O)(CCC)C(=O)NN(C(=O)CCl)c1ccccc1 | inconclusive: 18.4 µM [inhibitor, partial curve, poor fit]
CCCCn1c(N)c(N(CC(C)C)C(=O)c2ccc(Br)s2)c(=O)[nH]c1=O | inconclusive: 1.58 µM [activator, full curve, poor fit]
N/C(Cn1nnc(-c2ccccc2)n1)=N\O | inactive
CCOc1ccc(NC(=O)CN(C)S(=O)(=O)c2ccc(-c3ccc(=O)[nH]n3)s2)cc1 | inactive
CCCCNC(=O)COC(=O)c1c2c(nc3ccccc13)/C(=C\c1cccs1)CC2 | inconclusive: 35.5 µM [inhibitor, single point]
O=C(c1cc(COc2ccc(F)cc2F)on1)N1CC2C[C@@H]3CC1C[C@H](C2)C3 | inactive
COCCn1c(SCc2ccccc2F)nc2c([nH]c3ccccc32)c1=O | inconclusive: 35.5 µM [activator, single point]

SMILES | Potency
O=C1C(c2ccncc2)=C(O)c2ccccc21 | active: 7.94 µM
c1ccc(CSc2ccc(-c3cccnc3)nn2)nc1 | inconclusive: 35.5 µM [activator, single point]
CCCOC(=O)/C(C)=N\NC(=O)c1ccco1 | inconclusive: 11.2 µM [activator, partial curve, poor fit]
Cn1cc(C(=O)N2CCc3ccccc32)cn1 | inconclusive: 2.31 µM [activator, full curve, poor fit]
CC(C)CN(C(=O)COC(=O)c1cncc(Br)c1)c1c(N)n(Cc2ccccc2)c(=O)[nH]c1=O | inconclusive: 0.1 µM [inhibitor, full curve, poor fit]
Cc1ccc(NC(=O)Cc2c(Cl)cccc2Cl)cc1S(=O)(=O)N(C)C | inconclusive: 20 µM [inhibitor, single point]
COc1ccc(-c2cc(C(F)(F)F)n3ncc(C(=O)N4CCCCC4c4cccnc4)c3n2)cc1 (stereo unspecified) | inconclusive: 0.794 µM [inhibitor, partial curve, poor fit]
COc1ccc(C/C(C)=N/NC(=S)Nc2ccccc2)cc1 | inactive
O=C(CCCCCn1c(=O)[nH]c2ccccc2c1=O)NCCCN1CCN(c2ccccc2F)CC1 | inactive
O=C(O)/C=C/c1cccc(NC(=O)c2ccccc2)c1 | inconclusive: 20 µM [activator, partial curve, poor fit]
CCOC(=O)CN(Cc1ccccc1)C(C(=O)NC1CCCCC1)c1ccccc1 (stereo unspecified) | inconclusive: 6.31 µM [activator, single point]
Cc1ccc(S(=O)(=O)N(CC(=O)N2CCCCCC2)c2ccccc2F)cc1 | active: 10 µM
COc1ccc(NS(=O)(=O)c2ccc(N3CCCC3)c(N)c2)cc1 | inconclusive: 35.5 µM [inhibitor, single point]
CCCN(CCC)C(=O)CC(c1ccccc1)c1cc(Br)ccc1O (stereo unspecified) | inactive
COc1ccc(NC(=O)COC(=O)C2CCCCC2)c([N+](=O)[O-])c1 | inconclusive: 31.6 µM [activator, single point]
Cc1ccc(C)c(S(=O)(=O)N/N=C/c2cccnc2)c1 | inconclusive: 5.01 µM [inhibitor, single point]
COC(=O)Cc1ccc(NC(=S)N2CCCC(C)C2)cc1 (stereo unspecified) | inconclusive: 0.82 µM [inhibitor, full curve, poor fit]
COc1ccc(NC(=O)COc2ccccc2Cc2ccccc2)cc1S(=O)(=O)N1CCOCC1 | inactive
O=C(C1CCC(=O)N1Cc1ccccc1Cl)N1CCN(c2cccc(Cl)c2)CC1 (stereo unspecified) | inconclusive: 35.5 µM [inhibitor, single point]
O=C(N1CCOCC1)N1[C@H](COCc2ccccc2)C=CS1(=O)=O | inconclusive: 12.5 µM [activator, single point]
CCc1nnc(SCC(=O)Nc2ccc(OC)c(OC)c2)c2cc3occc3n12 | inconclusive: 35.5 µM [activator, single point]
CC(Oc1ccccc1)C(=O)Nc1ccccc1C(=O)OCc1cc(=O)n2nc(C3CC3)sc2n1 (stereo unspecified) | inconclusive: 35.5 µM [activator, single point]
COc1ccc([N+](=O)[O-])c(S(=O)(=O)c2ccc(Cl)cc2)n1 | inconclusive: 12.6 µM [inhibitor, single point]
Cc1ccc(S(=O)(=O)c2cn(CC(=O)Nc3ccc4c(c3)OCO4)c3ccc(C)cc3c2=O)cc1 | inactive

Filtered by structure, those above containing a thiophene ring, fused or not
SMILES | Potency
CC(NC(=O)c1cc(-c2cccs2)on1)c1ccccc1 (stereo unspecified) | inactive
CCCCn1c(N)c(N(CC(C)C)C(=O)c2ccc(Br)s2)c(=O)[nH]c1=O | inconclusive: 1.58 µM [activator, full curve, poor fit]
CCOc1ccc(NC(=O)CN(C)S(=O)(=O)c2ccc(-c3ccc(=O)[nH]n3)s2)cc1 | inactive
CCCCNC(=O)COC(=O)c1c2c(nc3ccccc13)/C(=C\c1cccs1)CC2 | inconclusive: 35.5 µM [inhibitor, single point]

(continued)

SMILES | Potency
CCC1CN(CC(=O)NCc2cccc(Br)c2)c2ccccc2S1 (stereo unspecified) | inactive
CC(C)C(=O)Nc1ccc(NC(=O)c2cccs2)cn1 | inactive
Cc1ccc2c(c1)c1c(c(=O)n(Cc3ccccc3)c(=O)n1Cc1cccc(F)c1)n2C | inactive
Cc1ccccc1OCc1nnc(SCc2cc(=O)c3cc(F)ccc3[nH]2)n1C | inactive
CC(NC(=O)COC(=O)c1nc(Cl)ccc1Cl)c1ccccc1 (stereo unspecified) | inconclusive: 4.47 µM [activator, full curve, poor fit]
S=c1[nH]nc(Cn2c(-c3ccccn3)nc3ccccc32)n1-c1ccc2c(c1)OCCO2 | inactive
Cc1cccc(NC(=O)CN2C(=O)c3cccnc3Oc3ccc(Cl)cc32)c1C | inactive
Cc1nc(Nc2nc(CSc3nc4ccccc4[nH]3)cc(=O)[nH]2)nc2ccccc12 | inconclusive: 29.1 µM [inhibitor, single point]
NC(N)=NC(N)=Nc1ccccc1 | inconclusive: 0.0046 µM [inhibitor, full curve, poor fit]
COc1ccccc1COC(=O)C(NC(=O)c1ccc(C)cc1)C(C)C (stereo unspecified) | inconclusive: 20 µM [inhibitor, single point]
Cc1ccc(N2C(=O)[C@@H]3[C@H](C2=O)[C@H]2C=C(C(=O)c4ccccc4)C=CN2[C@@H]3C(=O)c2ccc(Cl)cc2)cc1 | inactive
O=C(Nc1cccc(F)c1)Nc1cccc(Cl)c1 | inconclusive: 35.5 µM [inhibitor, single point]
COc1ccc(OC)c(/C=N/NC(=O)c2cc3c(OC)cc(OC)cc3[nH]2)c1 | inconclusive: 12.6 µM [inhibitor, partial curve]
O=C1CC(Nc2ccc3ccccc3c2)C(=O)N1Cc1ccccc1 (stereo unspecified) | inconclusive: 8.2 µM [inhibitor, partial curve]
O=c1c2[nH]c3ccccc3c2ncn1CCN1CCNCC1 | inconclusive: 29.1 µM [activator, single point]
O=C(CCc1c[nH]c2ccccc12)OCc1ccc(Br)cc1 | inconclusive: 35.5 µM [inhibitor, single point]
COC(=O)c1ccc(NCc2c(O)ccc(O)c2Br)cc1Cl | inactive
CCOc1ccc(CNC(=O)CCS(=O)(=O)c2cc3c(cc2Cl)NC(=O)CO3)cc1OC | inactive
O=C(Nc1ccc(NC(=O)N2CCN(c3ccccc3O)CC2)cc1)N1CCN(c2ccccc2O)CC1 | inconclusive: 12.6 µM [inhibitor, single point]
Cc1ccc(NC2CCCN(C(=O)CCCN3CCCCC3=O)C2)cc1C (stereo unspecified) | inactive
Cc1ccc(-c2nnc(SCC(C)C)n2C)cc1 | inconclusive: 23.1 µM [activator, partial curve, poor fit]
CCOC(=O)c1ccccc1NC(=O)Nc1cc2c(cc1N1CCCCC1)n(C)c(=O)n2C | inactive
CCC(=O)Oc1ccc(C/C(=N\O)c2ccc(O)cc2O)o1 | inactive
